From PubChem BioAssay AID1347076 (National Center for Advancing Translational Sciences (NCATS), 2019)
Among all 400,000 compounds or so, about 13,000 (3.2%) were called active. The inconclusive results got no clear call from the source; some entries with a clear call stand among them for comparison. Calls come from the whole dose curve; as a rule, active = well fitted cell-killing curve with a large enough effect; inconclusive = small, poorly fitted or top-dose-only effect, or effect the other way; inactive = flat fitted curve, though single readings scatter. Potencies beside an inconclusive call are fits to weak or partial responses and may not hold up.

assay: qHTS assay for MDR1-selective chemotherapeutics: Primary screen using the drug-selected MDR subline cells KB-V1; settings: KB-V1 MDR cells viability, CellTiter-Glo, 72 h; series mostly up to 46.1 µM; note: nearly all actives have a fitted effect of over 60% in size
Outline: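 Potencies derive from concentration-effect curves fitted to normalized luminescence (CellTiter-Glo) of KB-V1 cells treated for 72 h at 37 degrees C in phenol-red-free DMEM containing 10% FBS.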
Potency is the fitted concentration of half-maximal effect.

Row | SMILES | Potency
1 | CC1CCN(CCc2nc3cc(NC(=O)NC4CCCCC4)ccc3n2C)CC1 | inactive
2 | CCOC(=O)c1c(NC(=O)/C=C/C(=O)O)sc(C)c1-c1ccc(F)cc1 | inconclusive: 29.1 µM [cytotoxic, single point]
3 | CC1CN(Cc2cnc(Cl)s2)CC(C)O1 (centres undefined) | inconclusive: 29.1 µM [cytotoxic, single point]
4 | COc1cc2c(c(Br)c1N)-c1cc(Br)c(N)cc1C2=O | inactive
5 | CC1CCCN(C(=O)c2ccc3c(c2)C(=O)N(CCC2=CCCCC2)C3=O)C1 (centres undefined) | inconclusive: 5.17 µM [rising, partial curve, poor fit]
6 | CCc1ccccc1NC(=O)C1CCCN(c2nccc(C)n2)C1 (centres undefined) | inactive
7 | COc1ccc(COC(=O)C2=C(C)NC(=O)NC2c2ccc(F)cc2)cc1 (centres undefined) | inconclusive: 16.4 µM [cytotoxic, partial curve]
8 | CCOC(=O)CC(NCc1ccc(OC)c(OCC)c1)c1ccc(C)cc1 (centres undefined) | inconclusive: 4.61 µM [cytotoxic, full curve, poor fit]
9 | Cc1ccc(/C=C2\SC(=O)N(CCC(=O)N3CCN(C)CC3)C2=O)cc1 | inconclusive: 29.1 µM [cytotoxic, single point]
10 | CC(=O)Oc1ccc(Cl)cc1/C=C/c1ccc2ccccc2n1 | inconclusive: 25.9 µM [cytotoxic, single point]
11 | Cc1ccc(NC(=O)COC(=O)c2ccc(S(=O)(=O)N3CCCC3)cc2)cc1 | inactive
12 | CCOc1ccc2nc(NC(=O)NC3CCCCC3)sc2c1 | inconclusive: 29.1 µM [cytotoxic, partial curve, poor fit]
13 | NS(=O)(=O)c1ccc(NC(=S)Nc2ccc(S(=O)(=O)Nc3nccs3)cc2)cc1 | inactive
14 | CCC(NC(=O)CCl)c1ccc(C)cc1 (centres undefined) | inconclusive: 29.1 µM [cytotoxic, single point]
15 | CC(C)(C)NC(=O)c1ccc2c(c1)N(CC(=O)N1CCN(c3ccc(F)cc3)CC1)C(=O)C(C)(C)O2 | active: 3.66 µM
16 | N#Cc1c(N)nc(SCC(=O)C23CC4CC(CC(C4)C2)C3)c(C#N)c1-c1ccc(Cl)cc1 | inconclusive: 29.1 µM [cytotoxic, single point]
17 | Nc1c(C(=O)NC2CC2)sc2nc3c(c(-c4ccco4)c12)CC/C3=C/c1ccco1 | inactive
18 | Cc1nc(-c2ccccc2)sc1CCNC(=O)c1ccco1 | inconclusive: 7.31 µM [cytotoxic, partial curve]
19 | O=[N+]([O-])c1ccc(COc2ccc(-c3[nH]ncc3-c3ccccc3)c(O)c2)cc1 | inconclusive: 20.6 µM [cytotoxic, partial curve]

2 entries drawn at random from the list so far:
Row | SMILES | Potency
14 | CCC(NC(=O)CCl)c1ccc(C)cc1 (centres undefined) | inconclusive: 29.1 µM [cytotoxic, single point]
17 | Nc1c(C(=O)NC2CC2)sc2nc3c(c(-c4ccco4)c12)CC/C3=C/c1ccco1 | inactive
